Test results: article doi:10.1101/2025.07.28.667104
Where two headings read alike, the source gives them in different places. No constants are given. Whether binding was seen depends on the method and setting. In cells and extracts the contact can be indirect. These calls come from enrichment with a bait or labelling near it, and not all partners need be listed.

By UniProt entry, the sequences of proteins in these tests, tags left out. Where a name states a change or a piece, a line headed by the entry shows the natural chain unless it says otherwise. Residues count along the entry.
UniProt P23497: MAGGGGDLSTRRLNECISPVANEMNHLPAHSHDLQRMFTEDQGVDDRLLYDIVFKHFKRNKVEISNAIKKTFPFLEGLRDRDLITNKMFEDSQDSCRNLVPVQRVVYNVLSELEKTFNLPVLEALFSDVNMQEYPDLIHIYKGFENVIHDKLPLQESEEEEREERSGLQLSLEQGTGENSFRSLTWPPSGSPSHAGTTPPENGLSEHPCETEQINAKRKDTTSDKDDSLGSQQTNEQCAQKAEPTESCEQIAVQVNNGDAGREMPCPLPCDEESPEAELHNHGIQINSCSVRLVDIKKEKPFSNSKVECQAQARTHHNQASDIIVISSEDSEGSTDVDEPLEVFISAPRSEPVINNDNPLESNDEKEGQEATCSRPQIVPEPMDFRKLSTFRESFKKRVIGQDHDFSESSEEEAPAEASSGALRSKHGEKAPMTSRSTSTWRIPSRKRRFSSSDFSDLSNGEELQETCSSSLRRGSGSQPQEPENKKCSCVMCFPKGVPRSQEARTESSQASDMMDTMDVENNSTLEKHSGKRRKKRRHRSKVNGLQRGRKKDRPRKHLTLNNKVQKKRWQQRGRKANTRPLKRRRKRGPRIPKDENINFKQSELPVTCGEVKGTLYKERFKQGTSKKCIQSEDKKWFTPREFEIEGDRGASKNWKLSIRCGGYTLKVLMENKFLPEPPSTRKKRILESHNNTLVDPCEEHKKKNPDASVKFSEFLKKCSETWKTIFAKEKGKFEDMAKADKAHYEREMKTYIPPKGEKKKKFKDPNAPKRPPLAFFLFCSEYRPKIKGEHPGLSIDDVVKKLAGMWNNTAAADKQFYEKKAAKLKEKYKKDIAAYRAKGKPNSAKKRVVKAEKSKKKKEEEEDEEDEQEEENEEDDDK
UniProt P46100: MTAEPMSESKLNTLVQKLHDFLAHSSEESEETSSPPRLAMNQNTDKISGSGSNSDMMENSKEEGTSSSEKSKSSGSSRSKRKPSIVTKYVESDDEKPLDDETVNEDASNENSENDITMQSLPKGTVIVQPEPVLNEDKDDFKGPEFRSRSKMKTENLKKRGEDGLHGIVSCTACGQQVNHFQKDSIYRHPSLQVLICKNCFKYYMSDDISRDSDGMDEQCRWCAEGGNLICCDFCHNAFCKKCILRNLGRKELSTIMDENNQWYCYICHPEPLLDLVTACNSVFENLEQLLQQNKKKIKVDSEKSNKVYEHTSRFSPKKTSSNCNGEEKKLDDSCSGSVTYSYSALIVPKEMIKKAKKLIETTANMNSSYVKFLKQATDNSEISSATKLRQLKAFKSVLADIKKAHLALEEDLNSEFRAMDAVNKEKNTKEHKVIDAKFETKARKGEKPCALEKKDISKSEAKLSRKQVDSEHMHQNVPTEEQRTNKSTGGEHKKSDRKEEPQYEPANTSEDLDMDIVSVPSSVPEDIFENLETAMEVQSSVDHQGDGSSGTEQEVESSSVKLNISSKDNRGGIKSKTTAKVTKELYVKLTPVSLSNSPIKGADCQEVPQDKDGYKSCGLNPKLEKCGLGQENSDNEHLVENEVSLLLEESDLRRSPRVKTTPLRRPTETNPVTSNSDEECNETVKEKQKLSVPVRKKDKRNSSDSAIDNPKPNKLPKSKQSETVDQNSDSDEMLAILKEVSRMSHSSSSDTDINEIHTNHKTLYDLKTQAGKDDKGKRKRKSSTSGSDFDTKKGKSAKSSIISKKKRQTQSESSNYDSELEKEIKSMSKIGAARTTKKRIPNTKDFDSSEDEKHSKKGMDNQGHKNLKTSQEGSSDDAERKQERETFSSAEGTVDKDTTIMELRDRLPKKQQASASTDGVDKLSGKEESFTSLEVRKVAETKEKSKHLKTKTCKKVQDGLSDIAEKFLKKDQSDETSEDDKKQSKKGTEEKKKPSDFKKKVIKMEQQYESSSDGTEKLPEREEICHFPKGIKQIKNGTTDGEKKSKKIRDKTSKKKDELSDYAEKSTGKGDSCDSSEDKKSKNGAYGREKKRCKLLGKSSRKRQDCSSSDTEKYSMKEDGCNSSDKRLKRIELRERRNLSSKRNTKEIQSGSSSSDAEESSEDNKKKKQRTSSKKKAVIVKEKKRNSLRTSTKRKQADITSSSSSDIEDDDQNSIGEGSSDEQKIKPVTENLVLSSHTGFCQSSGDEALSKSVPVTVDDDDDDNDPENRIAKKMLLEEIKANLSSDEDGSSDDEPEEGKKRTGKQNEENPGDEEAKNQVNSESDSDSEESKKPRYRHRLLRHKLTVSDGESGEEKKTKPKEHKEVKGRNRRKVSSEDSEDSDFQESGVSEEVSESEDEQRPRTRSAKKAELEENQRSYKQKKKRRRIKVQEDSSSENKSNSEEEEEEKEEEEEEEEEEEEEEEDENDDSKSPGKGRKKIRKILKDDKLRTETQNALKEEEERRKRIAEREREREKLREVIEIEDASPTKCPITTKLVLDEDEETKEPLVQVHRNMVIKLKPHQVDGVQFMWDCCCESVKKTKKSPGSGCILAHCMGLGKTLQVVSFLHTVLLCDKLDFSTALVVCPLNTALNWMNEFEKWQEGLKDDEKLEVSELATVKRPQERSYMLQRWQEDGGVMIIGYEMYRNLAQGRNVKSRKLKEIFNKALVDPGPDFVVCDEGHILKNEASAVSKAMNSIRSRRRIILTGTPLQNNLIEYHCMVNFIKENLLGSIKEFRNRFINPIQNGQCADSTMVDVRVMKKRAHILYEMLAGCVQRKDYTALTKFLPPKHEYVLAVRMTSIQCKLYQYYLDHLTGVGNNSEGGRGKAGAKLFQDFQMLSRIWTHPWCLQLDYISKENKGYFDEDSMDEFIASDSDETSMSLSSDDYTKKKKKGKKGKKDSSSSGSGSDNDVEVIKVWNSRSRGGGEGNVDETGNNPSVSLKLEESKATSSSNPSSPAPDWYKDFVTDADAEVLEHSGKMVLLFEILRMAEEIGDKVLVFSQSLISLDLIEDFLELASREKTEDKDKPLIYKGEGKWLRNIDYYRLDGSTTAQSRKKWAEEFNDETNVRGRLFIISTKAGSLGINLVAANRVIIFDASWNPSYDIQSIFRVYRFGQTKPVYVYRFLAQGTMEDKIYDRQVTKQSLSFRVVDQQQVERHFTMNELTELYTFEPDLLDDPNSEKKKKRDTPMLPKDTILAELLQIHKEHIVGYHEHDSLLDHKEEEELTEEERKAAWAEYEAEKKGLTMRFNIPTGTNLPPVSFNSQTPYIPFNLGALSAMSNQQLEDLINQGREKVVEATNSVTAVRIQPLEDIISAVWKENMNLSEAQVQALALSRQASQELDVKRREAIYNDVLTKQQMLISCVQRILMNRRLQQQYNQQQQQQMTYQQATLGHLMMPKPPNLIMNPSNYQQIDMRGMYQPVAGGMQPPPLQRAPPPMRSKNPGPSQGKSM
UniProt P50750: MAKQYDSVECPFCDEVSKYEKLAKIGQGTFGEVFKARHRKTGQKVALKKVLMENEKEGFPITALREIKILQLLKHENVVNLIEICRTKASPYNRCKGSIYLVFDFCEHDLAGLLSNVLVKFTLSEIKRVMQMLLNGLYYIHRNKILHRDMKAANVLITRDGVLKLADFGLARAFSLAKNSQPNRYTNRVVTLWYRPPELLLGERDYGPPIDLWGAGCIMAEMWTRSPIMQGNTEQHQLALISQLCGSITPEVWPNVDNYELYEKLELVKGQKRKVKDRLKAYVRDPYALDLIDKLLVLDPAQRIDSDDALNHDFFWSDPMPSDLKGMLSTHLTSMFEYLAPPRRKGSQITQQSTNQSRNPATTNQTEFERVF
UniProt Q9UER7: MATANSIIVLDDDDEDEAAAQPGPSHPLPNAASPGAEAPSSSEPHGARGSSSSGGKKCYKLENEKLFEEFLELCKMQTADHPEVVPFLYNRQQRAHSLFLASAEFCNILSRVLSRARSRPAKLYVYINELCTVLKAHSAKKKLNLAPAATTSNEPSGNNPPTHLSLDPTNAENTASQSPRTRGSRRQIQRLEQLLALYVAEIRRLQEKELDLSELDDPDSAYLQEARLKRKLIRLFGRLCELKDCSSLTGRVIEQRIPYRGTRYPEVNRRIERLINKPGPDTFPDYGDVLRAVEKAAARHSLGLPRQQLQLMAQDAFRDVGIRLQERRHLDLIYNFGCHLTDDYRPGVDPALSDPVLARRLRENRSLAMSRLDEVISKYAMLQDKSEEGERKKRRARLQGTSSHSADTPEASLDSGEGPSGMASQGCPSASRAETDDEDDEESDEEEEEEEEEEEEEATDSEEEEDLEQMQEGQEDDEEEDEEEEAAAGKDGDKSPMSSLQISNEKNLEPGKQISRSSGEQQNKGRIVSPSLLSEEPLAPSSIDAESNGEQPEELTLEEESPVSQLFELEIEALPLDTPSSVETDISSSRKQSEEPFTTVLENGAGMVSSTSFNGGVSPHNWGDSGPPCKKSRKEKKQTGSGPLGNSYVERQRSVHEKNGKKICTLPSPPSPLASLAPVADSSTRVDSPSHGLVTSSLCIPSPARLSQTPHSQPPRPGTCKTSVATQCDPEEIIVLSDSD
UniProt P63165, residues 1-97: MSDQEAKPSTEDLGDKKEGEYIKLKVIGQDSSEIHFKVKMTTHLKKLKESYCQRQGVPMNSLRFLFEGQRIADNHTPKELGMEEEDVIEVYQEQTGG
UniProt P61956: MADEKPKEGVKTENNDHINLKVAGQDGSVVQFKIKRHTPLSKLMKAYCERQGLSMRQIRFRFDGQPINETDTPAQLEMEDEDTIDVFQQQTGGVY

Assays:
Test in all cases: proximity labelling
[1] = target: TurboID CTD-Sp100-HMG (human) (UniProt P23497)
[2] = target: TurboID-Sp100-HMG (human) (UniProt P23497)
[3] = target: TurboID-Sp100-HMG (human) (UniProt P23497); remark: listed apart in the source

| Molecule | binding [1] | binding [2] | binding [3] |
| --- | --- | --- | --- |
| ATRX (from UniProt P46100 1-2492) | binds |  |  |
| CDK9 (from UniProt P50750 1-372) |  | binds |  |
| DAXX (from UniProt Q9UER7 1-740) | binds | binds |  |
| SUMO1 (from UniProt P63165 1-97) |  | binds |  |
| SUMO2 (from UniProt P61956) |  | binds |  |
| SMC6 (protein, UniProt Q96SB8 1-1091) MAKRKEENFSSPKNAKRPRQEELEDFDKDGDEDECKGTTLTAAEVGIIESIHLKNFMCHSMLGPFKFGSNVNFVVGNNGSGKSAVLTALIVGLGGRAVATNRGSSLKGFVKDGQNSADISITLRNRGDDAFKASVYGNSILIQQHISIDGSRSYKLKSATGSVVSTRKEELIAILDHFNIQVDNPVSVLTQEMSKQFLQSKNEGDKYKFFMKATQLEQMKEDYSYIMETKERTKEQIHQGEERLTELKRQCVEKEERFQSIAGLSTMKTNLESLKHEMAWAVVNEIEKQLNAIRDNIKIGEDRAARLDRKMEEQQVRLNEAEQKYKDIQDKLEKISEETNARAPECMALKADVVAKKRAYNEAEVLYNRSLNEYKALKKDDEQLCKRIEELKKSTDQSLEPERLERQKKISWLKERVKAFQNQENSVNQEIEQFQQAIEKDKEEHGKIKREELDVKHALSYNQRQLKELKDSKTDRLKRFGPNVPALLEAIDDAYRQGHFTYKPVGPLGACIHLRDPELALAIESCLKGLLQAYCCHNHADERVLQALMKRFYLPGTSRPPIIVSEFRNEIYDVRHRAAYHPDFPTVLTALEIDNAVVANSLIDMRGIETVLLIKNNSVARAVMQSQKPPKNCREAFTADGDQVFAGRYYSSENTRPKFLSRDVDSEISDLENEVENKTAQILNLQQHLSALEKDIKHNEELLKRCQLHYKELKMKIRKNISEIRELENIEEHQSVDIATLEDEAQENKSKMKMVEEHMEQQKENMEHLKSLKIEAENKYDAIKFKINQLSELADPLKDELNLADSEVDNQKRGKRHYEEKQKEHLDTLNKKKRELDMKEKELEEKMSQARQICPERIEVEKSASILDKEINRLRQKIQAEHASHGDREEIMRQYQEARETYLDLDSKVRTLKKFIKLLGEIMEHRFKTYQQFRRCLTLRCKLYFDNLLSQRAYCGKMNFDHKNETLSISVQPGEGNKAAFNDMRALSGGERSFSTVCFILSLWSIAESPFRCLDEFDVYMDMVNRRIAMDLILKMADSQRFRQFILLTPQSMSSLPSSKLIRILRMSDPERGQTTLPFRPVTQEEDDDQR |  |  | binds |
